Measured values taken from the supplement of paper PMC10849652.
The list shows a part of the results.

By UniProt entry, the sequences of proteins in these tests, tags left out. Where a name states a change or a piece, a line headed by the entry shows the natural chain unless it says otherwise.
UniProt Q9BTE3: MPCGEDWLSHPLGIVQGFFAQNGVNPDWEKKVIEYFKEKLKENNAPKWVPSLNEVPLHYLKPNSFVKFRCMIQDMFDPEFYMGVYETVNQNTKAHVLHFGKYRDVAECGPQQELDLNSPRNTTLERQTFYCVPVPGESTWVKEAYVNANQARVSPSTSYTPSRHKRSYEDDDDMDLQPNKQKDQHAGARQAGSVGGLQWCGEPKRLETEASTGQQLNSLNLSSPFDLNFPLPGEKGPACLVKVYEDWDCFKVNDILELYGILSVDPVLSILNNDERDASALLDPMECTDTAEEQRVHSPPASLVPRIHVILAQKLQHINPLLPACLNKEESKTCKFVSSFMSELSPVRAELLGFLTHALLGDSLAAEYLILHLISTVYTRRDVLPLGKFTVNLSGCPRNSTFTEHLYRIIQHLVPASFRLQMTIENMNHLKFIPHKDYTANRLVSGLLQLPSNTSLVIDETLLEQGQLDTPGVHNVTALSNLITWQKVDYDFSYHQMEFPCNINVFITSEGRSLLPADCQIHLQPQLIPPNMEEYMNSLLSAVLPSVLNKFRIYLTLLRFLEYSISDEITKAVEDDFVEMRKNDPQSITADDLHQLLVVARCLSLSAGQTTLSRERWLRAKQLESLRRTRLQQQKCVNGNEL
UniProt Q07820, whole entry, looked up: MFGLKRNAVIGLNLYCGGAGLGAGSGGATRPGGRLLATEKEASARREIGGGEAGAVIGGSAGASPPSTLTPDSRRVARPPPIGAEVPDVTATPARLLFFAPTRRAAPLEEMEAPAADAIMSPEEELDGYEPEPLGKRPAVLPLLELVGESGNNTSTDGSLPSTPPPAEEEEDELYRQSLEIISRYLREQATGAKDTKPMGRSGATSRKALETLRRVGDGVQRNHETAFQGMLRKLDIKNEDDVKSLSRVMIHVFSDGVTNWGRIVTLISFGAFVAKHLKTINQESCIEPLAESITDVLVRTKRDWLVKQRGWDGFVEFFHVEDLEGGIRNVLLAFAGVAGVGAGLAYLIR
UniProt Q9HCE5: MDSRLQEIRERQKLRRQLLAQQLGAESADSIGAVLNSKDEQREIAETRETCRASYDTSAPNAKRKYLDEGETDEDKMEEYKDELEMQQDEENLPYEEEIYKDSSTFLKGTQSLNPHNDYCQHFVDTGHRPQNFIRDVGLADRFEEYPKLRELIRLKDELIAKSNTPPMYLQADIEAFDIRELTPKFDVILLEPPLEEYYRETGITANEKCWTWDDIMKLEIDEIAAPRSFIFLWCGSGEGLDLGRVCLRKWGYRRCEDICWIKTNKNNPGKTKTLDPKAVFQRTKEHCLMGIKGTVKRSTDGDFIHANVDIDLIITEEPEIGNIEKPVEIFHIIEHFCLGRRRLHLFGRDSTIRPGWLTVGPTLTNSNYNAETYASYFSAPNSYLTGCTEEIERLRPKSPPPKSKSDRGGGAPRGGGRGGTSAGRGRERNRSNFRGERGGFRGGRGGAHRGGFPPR
UniProt P25205: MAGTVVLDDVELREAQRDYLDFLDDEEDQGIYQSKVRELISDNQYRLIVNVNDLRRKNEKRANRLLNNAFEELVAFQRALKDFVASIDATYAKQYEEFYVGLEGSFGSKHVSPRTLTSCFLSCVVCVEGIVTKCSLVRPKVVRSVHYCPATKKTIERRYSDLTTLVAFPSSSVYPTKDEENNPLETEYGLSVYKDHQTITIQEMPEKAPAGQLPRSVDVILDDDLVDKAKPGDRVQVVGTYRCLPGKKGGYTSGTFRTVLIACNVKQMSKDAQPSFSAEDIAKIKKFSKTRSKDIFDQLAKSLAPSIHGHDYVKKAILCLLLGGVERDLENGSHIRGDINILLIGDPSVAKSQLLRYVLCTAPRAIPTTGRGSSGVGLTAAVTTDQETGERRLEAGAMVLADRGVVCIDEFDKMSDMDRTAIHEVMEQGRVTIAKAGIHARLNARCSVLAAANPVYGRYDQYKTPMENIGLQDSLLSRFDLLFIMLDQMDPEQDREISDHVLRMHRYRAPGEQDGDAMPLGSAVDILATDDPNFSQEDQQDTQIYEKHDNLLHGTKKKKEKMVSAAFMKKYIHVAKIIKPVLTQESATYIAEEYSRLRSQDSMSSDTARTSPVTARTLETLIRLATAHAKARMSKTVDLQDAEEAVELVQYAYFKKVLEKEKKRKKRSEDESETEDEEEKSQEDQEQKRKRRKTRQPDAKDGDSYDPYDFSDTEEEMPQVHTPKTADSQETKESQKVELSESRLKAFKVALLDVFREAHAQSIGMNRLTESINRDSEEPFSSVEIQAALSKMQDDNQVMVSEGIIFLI
UniProt Q86W50: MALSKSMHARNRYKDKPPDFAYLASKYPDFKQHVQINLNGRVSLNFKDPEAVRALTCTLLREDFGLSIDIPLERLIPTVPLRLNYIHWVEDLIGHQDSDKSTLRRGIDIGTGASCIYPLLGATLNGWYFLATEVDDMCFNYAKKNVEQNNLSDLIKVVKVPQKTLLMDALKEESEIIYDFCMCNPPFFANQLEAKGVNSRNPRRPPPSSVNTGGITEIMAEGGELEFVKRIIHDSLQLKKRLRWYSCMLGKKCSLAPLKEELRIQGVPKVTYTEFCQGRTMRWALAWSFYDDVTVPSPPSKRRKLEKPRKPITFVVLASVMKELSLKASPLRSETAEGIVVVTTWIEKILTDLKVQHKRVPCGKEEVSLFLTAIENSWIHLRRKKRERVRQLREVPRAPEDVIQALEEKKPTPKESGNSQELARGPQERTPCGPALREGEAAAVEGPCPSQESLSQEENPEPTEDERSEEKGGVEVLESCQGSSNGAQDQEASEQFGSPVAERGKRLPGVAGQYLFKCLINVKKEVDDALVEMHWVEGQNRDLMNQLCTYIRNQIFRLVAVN
UniProt Q9H3U5: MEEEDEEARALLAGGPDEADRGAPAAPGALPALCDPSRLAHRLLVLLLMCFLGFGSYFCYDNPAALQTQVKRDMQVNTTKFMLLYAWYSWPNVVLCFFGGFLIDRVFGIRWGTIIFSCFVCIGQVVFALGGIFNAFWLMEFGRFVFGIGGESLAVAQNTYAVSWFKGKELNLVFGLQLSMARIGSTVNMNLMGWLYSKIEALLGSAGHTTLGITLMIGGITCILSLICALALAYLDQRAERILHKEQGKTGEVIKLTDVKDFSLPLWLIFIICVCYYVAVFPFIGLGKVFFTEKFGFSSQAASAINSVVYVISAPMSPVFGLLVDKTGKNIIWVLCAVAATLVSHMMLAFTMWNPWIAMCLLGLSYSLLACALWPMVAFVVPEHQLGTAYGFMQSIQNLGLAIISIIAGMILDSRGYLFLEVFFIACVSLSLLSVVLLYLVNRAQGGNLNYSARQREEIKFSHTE
UniProt O60244: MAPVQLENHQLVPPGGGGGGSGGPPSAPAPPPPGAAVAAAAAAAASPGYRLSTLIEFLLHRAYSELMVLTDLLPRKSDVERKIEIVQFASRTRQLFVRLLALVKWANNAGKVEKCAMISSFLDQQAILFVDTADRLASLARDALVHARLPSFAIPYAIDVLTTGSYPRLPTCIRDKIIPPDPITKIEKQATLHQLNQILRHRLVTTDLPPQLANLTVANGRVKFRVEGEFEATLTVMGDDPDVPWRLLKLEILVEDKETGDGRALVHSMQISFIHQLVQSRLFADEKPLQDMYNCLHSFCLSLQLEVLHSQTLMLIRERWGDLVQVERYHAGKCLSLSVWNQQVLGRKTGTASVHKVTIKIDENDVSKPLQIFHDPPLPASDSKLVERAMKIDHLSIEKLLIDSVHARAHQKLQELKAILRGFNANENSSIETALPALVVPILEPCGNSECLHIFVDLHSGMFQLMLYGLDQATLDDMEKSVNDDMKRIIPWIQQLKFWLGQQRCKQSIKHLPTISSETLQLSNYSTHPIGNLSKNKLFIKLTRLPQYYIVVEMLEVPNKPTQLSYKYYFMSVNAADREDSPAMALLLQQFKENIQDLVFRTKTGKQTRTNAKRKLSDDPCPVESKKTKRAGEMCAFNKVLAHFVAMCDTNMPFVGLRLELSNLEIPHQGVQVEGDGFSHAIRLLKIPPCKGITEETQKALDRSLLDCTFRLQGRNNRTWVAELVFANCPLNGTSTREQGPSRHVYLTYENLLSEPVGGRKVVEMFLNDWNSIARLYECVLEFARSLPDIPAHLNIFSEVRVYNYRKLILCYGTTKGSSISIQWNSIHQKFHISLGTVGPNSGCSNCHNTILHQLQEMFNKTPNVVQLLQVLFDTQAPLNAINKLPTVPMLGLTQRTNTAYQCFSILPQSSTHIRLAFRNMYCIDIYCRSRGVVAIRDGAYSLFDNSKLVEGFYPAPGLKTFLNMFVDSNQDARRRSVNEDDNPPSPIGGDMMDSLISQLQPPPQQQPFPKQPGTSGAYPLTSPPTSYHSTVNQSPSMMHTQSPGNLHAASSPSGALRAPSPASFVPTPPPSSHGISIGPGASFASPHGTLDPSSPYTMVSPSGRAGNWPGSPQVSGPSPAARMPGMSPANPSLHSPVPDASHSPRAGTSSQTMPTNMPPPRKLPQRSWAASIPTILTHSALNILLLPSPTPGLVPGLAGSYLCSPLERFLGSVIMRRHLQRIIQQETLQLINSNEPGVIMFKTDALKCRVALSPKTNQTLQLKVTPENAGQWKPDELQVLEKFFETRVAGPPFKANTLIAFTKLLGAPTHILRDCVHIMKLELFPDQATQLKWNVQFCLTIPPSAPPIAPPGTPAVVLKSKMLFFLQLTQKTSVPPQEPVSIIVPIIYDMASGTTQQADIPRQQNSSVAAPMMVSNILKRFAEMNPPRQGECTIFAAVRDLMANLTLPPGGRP
UniProt Q9NR56: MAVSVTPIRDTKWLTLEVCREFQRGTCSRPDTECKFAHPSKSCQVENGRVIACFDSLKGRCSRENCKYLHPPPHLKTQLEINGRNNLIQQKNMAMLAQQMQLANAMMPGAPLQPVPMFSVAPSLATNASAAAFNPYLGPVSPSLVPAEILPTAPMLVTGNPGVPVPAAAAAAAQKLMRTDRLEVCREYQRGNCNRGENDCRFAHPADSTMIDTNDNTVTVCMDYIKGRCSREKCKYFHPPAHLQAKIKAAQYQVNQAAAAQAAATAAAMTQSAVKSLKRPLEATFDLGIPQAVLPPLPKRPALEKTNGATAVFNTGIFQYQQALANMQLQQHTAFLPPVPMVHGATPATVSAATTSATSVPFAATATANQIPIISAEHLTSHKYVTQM
UniProt P55081: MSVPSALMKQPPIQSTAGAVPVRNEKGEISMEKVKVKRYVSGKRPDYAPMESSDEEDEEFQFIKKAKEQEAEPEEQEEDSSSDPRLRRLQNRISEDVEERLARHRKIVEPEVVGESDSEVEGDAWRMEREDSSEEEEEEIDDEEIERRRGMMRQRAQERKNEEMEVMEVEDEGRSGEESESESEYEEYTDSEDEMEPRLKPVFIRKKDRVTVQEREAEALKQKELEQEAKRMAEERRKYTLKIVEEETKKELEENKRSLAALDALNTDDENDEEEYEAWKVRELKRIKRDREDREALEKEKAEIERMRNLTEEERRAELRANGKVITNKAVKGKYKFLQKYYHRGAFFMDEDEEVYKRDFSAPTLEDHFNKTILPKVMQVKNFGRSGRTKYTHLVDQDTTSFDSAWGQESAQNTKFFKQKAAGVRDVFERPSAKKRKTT
UniProt Q9NS73: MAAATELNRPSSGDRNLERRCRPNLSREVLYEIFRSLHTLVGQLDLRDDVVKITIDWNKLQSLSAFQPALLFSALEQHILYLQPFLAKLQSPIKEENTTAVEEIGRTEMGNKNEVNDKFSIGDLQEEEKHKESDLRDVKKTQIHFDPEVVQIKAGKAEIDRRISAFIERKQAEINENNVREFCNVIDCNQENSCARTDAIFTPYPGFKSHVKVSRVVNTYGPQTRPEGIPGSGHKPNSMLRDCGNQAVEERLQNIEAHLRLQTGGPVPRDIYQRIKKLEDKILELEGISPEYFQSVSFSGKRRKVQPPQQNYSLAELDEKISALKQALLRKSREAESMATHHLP
UniProt Q6N075: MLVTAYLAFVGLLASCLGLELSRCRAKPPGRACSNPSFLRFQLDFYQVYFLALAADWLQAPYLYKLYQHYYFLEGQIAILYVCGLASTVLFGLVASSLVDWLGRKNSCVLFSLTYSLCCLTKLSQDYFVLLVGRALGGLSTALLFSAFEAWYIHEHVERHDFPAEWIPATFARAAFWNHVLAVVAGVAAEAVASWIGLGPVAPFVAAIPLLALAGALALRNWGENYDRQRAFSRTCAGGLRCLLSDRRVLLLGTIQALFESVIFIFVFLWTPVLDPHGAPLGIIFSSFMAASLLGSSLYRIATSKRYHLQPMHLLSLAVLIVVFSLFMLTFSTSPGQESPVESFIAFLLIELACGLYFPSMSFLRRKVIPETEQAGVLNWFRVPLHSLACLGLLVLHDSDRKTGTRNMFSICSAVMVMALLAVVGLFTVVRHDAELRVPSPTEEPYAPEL

Columns and labels:
Experiment in all cases: log2 fold change, soluble protein after heating vs DMSO (PISA); higher = thermal stabilisation; K562 lysate, 10 uM; active = over 0.2 and 3.5 SD of the protein, either way, in both replicates (recomputed)
[1] = compound: C=CC(=O)N1CCC[C@@H](n2nc(-c3ccc(Oc4ccccc4)cc3)c3c(N)ncnc32)C1 [ibrutinib]
In short: (§1)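 To prepare the extract, K562 pellets were dounce-homogenised in PBS pH 7.4 with 1 mM MgCl2, giving crude material at 1 mg/mL protein. This was treated with 10 μM compound for 30 min, then heated in aliquots for 3 min over 48°C-58°C before pooling and addition of NP-40 to 0.5% at 4°C. Centrifugation at 21,000xg for 90 min left soluble protein in the supernatant, which TMTpro 16plex LC-MS/MS quantified with equalised channel sums. Results are log-two fold changes in thermal stability compared with solvent controls, from duplicates.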

[2] = compound: CC(=O)c1cnc2ccc(-c3cc(Cl)c(O)c(Cl)c3)nc2c1N[C@H]1CC[C@H](CN(C)C)CC1
In short: as §1

[3] = compound: CC(C)(C)Cn1c(N)nc2ccc(-c3[nH]c(C(C)(C)C)nc3-c3ccc(F)cc3)nc21 [ralimetinib]
In short: as §1

[4] = compound: CC(C)(O)CC(=O)NCCn1ccc2ncnc(Nc3ccc(Oc4cccc(C(F)(F)F)c4)c(Cl)c3)c21
In short: as §1

[5] = compound: CC(C)C1=C2N=C(C=C(N2N=C1)NCC3=CC=CC=C3)NCCCCCCN
In short: as §1

[6] = compound: CC1=C(C(CC(=O)N1)C2=CC=C(C=C2)C(F)(F)F)C(=O)NC3=C(C=C4C(=C3)C=NN4)F
In short: as §1

[7] = compound: CC1=C(C2=C(C=C1)C(=O)C3=CC=CC=C3N2CCCN)C
In short: as §1

[8] = compound: CC1=C(C=C(C=C1)NC(=O)C2=CC(=CC=C2)C(C)(C)C#N)NC3=CC4=C(C=C3)N=CN(C4=O)C
In short: as §1

[9] = compound: CC1=C(C=C(C=C1)NC(=O)C2=CC(=CC=C2)N(C)C)NC(=O)C3=CC=C(C=C3)O
In short: as §1

[10] = compound: CC1=CC=C(C=C1)SC2=C3C=C(SC3=CN=C2)C(=O)N
In short: as §1

[11] = compound: CCCS(=O)(=O)Nc1ccc(F)c(C(=O)c2c[nH]c3ncc(-c4ccc(Cl)cc4)cc23)c1F [vemurafenib]
In short: as §1

[12] = compound: CCCS(=O)(=O)Nc1ccc(F)c(C(=O)c2c[nH]c3ncc(Cl)cc23)c1F
In short: as §1

[13] = compound: CCN(CCCOc1ccc2c(Nc3cc(CC(=O)Nc4cccc(F)c4)[nH]n3)ncnc2c1)CCOP(=O)(O)O [barasertib]
In short: as §1

[14] = compound: CC[C@@H]1C(=O)N(C)c2cnc(Nc3ccc(C(=O)NC4CCN(C)CC4)cc3OC)nc2N1C1CCCC1
In short: as §1

[15] = compound: CC[C@@H]1C(=O)N(C)c2cnc(Nc3ccc(C(=O)N[C@H]4CC[C@H](N5CCN(CC6CC6)CC5)CC4)cc3OC)nc2N1C(C)C [volasertib]
In short: as §1

[16] = compound: CCn1c(C(=O)N(C2CC2)C2CC2)cc2c3c(ncn3C)c(Nc3cc(C)n(C)n3)nc21
In short: as §1

[17] = compound: CCn1cc(-c2ccnc3[nH]c(-c4cccc(CN(C)C)c4)cc23)c(-c2ccc(NC(=O)N(C)C)cc2)n1
In short: as §1

[18] = compound: CN1CCC(CNc2ccc3ncc(-c4cccc(OC(F)(F)F)c4)n3n2)CC1
In short: as §1

[19] = compound: CN1CCN(CCOc2cc(OC3CCOCC3)c3c(Nc4c(Cl)ccc5c4OCO5)ncnc3c2)CC1 [saracatinib]
In short: as §1

[20] = compound: CN1CCN(c2nc(C3=C(c4c[nH]c5ccccc45)C(=O)NC3=O)c3ccccc3n2)CC1 [sotrastaurin]
In short: as §1

Measured: log2 fold change

MCMBP (UniProt Q9BTE3)
inactive: [1] 0.001 | [2] -0.007 | [3] 0.016 | [4] 0.038 | [5] -0.009 | [6] 0 | [7] 0.008 | [8] 0.008 | [9] 0.011 | [10] 0.014 | [11] -0.029 | [12] 0.019 | [13] -0.007 | [14] 0.006 | [15] -0.026 | [16] 0.043 | [17] 0.035 | [18] -0.032 | [19] 0.02 | [20] 0.015

MCL1 (UniProt Q07820)
inactive: [1] 0.042 | [2] 0.052 | [3] 0.051 | [4] -0.006 | [5] -0.083 | [6] -0.05 | [7] 0.039 | [8] 0.029 | [9] 0.015 | [10] -0.032 | [11] 0.065 | [12] -0.126 | [13] 0.105 | [14] 0.214 | [15] -0.147 | [16] 0.018 | [17] -0.169 | [18] 0.017 | [19] -0.061 | [20] -0.013

METTL14 (UniProt Q9HCE5)
inactive: [1] -0.003 | [2] -0.031 | [3] -0.026 | [4] -0.029 | [5] -0.058 | [6] 0.039 | [7] 0.004 | [8] -0.034 | [9] 0.01 | [10] 0.019 | [11] -0.035 | [12] -0.004 | [13] -0.048 | [14] 0.018 | [15] -0.016 | [16] 0.038 | [17] 0.21 | [18] -0.036 | [19] 0.024 | [20] 0.055

MCM4 (UniProt P33991)
inactive: [1] 0.034 | [2] 0.004 | [3] 0.025 | [4] 0.018 | [5] 0.034 | [6] -0.019 | [7] -0.024 | [8] 0.019 | [9] 0.022 | [10] 0.026 | [11] 0.01 | [12] 0.022 | [13] 0.065 | [14] -0.079 | [15] -0.074 | [16] 0.032 | [17] 0.018 | [18] -0.048 | [19] -0.018 | [20] 0.021

MCM3 isoform 2 (UniProt P25205)
inactive: [1] 0.012 | [2] -0.026 | [3] -0.005 | [4] 0.009 | [5] -0.007 | [6] 0.007 | [7] 0 | [8] -0.006 | [9] -0.005 | [10] 0.006 | [11] -0.018 | [12] 0.025 | [13] 0.001 | [14] -0.001 | [15] -0.009 | [16] 0.02 | [17] 0.065 | [18] -0.015 | [19] -0.024 | [20] -0.013

METTL2A (UniProt Q96IZ6)
inactive: [1] -0.006 | [2] 0.044 | [3] 0.048 | [4] 0.068 | [5] 0.018 | [6] 0.021 | [7] 0.038 | [8] -0.029 | [9] -0.025 | [10] 0.002 | [11] 0.073 | [12] 0.058 | [13] 0.023 | [14] -0.046 | [15] -0.015 | [16] -0.011 | [17] 0.06 | [18] -0.113 | [19] -0.004 | [20] 0.011

METTL16 (UniProt Q86W50)
inactive: [1] 0.009 | [2] -0.02 | [3] -0.023 | [4] -0.008 | [5] -0.007 | [6] 0.033 | [7] -0.019 | [8] -0.035 | [9] 0.024 | [10] 0.012 | [11] 0.014 | [12] 0.017 | [13] 0.042 | [14] -0.005 | [15] -0.015 | [16] -0.001 | [17] 0.011 | [18] -0.018 | [19] -0.017 | [20] 0.017

MFSD1 isoform 6 (UniProt Q9H3U5)
inactive: [1] 0.223 | [2] -0.032 | [3] 0.087 | [4] 0.038 | [5] -0.04 | [6] -0.039 | [7] -0.066 | [8] 0.013 | [9] -0.113 | [10] -0.013 | [11] 0.1 | [12] 0.006 | [13] -0.013 | [14] -0.049 | [15] 0.02 | [16] 0.075 | [17] -0.012 | [18] 0.062 | [19] 0.011 | [20] -0.035

MED14 (UniProt O60244)
inactive: [1] 0.002 | [2] -0.013 | [3] 0.017 | [4] -0.022 | [5] 0.01 | [6] 0.021 | [7] -0.029 | [8] -0.019 | [9] 0.013 | [10] 0.018 | [11] -0.078 | [12] 0.003 | [13] 0.015 | [14] -0.084 | [15] -0.023 | [16] 0.008 | [17] -0.008 | [18] 0.009 | [19] -0.001 | [20] 0.008

MBNL1 isoform 5 (UniProt Q9NR56)
inactive: [1] 0.045 | [2] 0.061 | [3] -0.027 | [4] -0.032 | [5] -0.013 | [6] -0.001 | [7] 0.034 | [8] -0.122 | [9] 0.003 | [10] -0.002 | [11] -0.031 | [12] -0.006 | [13] -0.004 | [14] 0.035 | [15] -0.013 | [16] 0.055 | [17] 0.03 | [18] 0.067 | [19] -0.01 | [20] -0.048

MCM7 (UniProt P33993)
inactive: [1] -0.017 | [2] -0.001 | [3] 0.016 | [4] -0.002 | [5] 0.012 | [6] -0.024 | [7] -0.003 | [8] -0.009 | [9] 0.042 | [10] 0.02 | [11] -0.037 | [12] 0.009 | [13] 0.03 | [14] -0.05 | [15] -0.088 | [16] 0.032 | [17] 0.015 | [18] -0.026 | [19] -0.026 | [20] 0.008

MFAP1 (UniProt P55081)
inactive: [1] 0.05 | [2] -0.012 | [3] -0.023 | [4] 0.021 | [5] -0.026 | [6] 0.001 | [7] 0.017 | [8] -0.001 | [9] -0.03 | [10] -0.035 | [11] 0.006 | [12] -0.039 | [13] -0.032 | [14] 0.137 | [15] 0.047 | [16] 0.012 | [17] -0.038 | [18] 0.043 | [19] -0.008 | [20] -0.045

MFSD10 (UniProt Q14728)
inactive: [1] 0.03 | [2] 0.017 | [3] 0.014 | [4] -0.059 | [5] -0.019 | [6] 0.033 | [7] 0.007 | [8] 0.015 | [9] -0.001 | [10] 0.001 | [11] 0.185 | [12] 0.082 | [13] 0.025 | [14] 0.144 | [15] -0.019 | [16] -0.055 | [17] -0.198 | [18] 0.162 | [19] -0.054 | [20] -0.056

Four neighbouring records out of the list so far, quoted:
MED14 (UniProt O60244)
inactive: [1] 0.002 | [2] -0.013 | [3] 0.017 | [4] -0.022 | [5] 0.01 | [6] 0.021 | [7] -0.029 | [8] -0.019 | [9] 0.013 | [10] 0.018 | [11] -0.078 | [12] 0.003 | [13] 0.015 | [14] -0.084 | [15] -0.023 | [16] 0.008 | [17] -0.008 | [18] 0.009 | [19] -0.001 | [20] 0.008

MBNL1 isoform 5 (UniProt Q9NR56)
inactive: [1] 0.045 | [2] 0.061 | [3] -0.027 | [4] -0.032 | [5] -0.013 | [6] -0.001 | [7] 0.034 | [8] -0.122 | [9] 0.003 | [10] -0.002 | [11] -0.031 | [12] -0.006 | [13] -0.004 | [14] 0.035 | [15] -0.013 | [16] 0.055 | [17] 0.03 | [18] 0.067 | [19] -0.01 | [20] -0.048

MCM7 (UniProt P33993)
inactive: [1] -0.017 | [2] -0.001 | [3] 0.016 | [4] -0.002 | [5] 0.012 | [6] -0.024 | [7] -0.003 | [8] -0.009 | [9] 0.042 | [10] 0.02 | [11] -0.037 | [12] 0.009 | [13] 0.03 | [14] -0.05 | [15] -0.088 | [16] 0.032 | [17] 0.015 | [18] -0.026 | [19] -0.026 | [20] 0.008

MFAP1 (UniProt P55081)
inactive: [1] 0.05 | [2] -0.012 | [3] -0.023 | [4] 0.021 | [5] -0.026 | [6] 0.001 | [7] 0.017 | [8] -0.001 | [9] -0.03 | [10] -0.035 | [11] 0.006 | [12] -0.039 | [13] -0.032 | [14] 0.137 | [15] 0.047 | [16] 0.012 | [17] -0.038 | [18] 0.043 | [19] -0.008 | [20] -0.045

Further records follow:

MED13L (UniProt Q71F56)
inactive: [1] 0.047 | [2] -0.036 | [3] 0.014 | [4] -0.016 | [5] 0.005 | [6] -0.027 | [7] -0.036 | [8] 0.007 | [9] 0.015 | [10] -0.035 | [11] -0.043 | [12] -0.012 | [13] 0.028 | [14] 0.01 | [15] -0.058 | [16] 0.038 | [17] -0.023 | [18] 0.064 | [19] -0.037 | [20] -0.018

MBIP (UniProt Q9NS73)
inactive: [1] -0.121 | [2] 0.149 | [3] 0.042 | [4] -0.07 | [5] -0.057 | [6] 0.076 | [7] -0.039 | [8] -0.131 | [9] 0.039 | [10] -0.01 | [11] 0.164 | [12] -0.018 | [13] -0.141 | [14] 0.007 | [15] 0.402 | [16] 0.045 | [17] -0.062 | [18] 0.017 | [19] 0.014 | [20] 0.063

MFSD5 isoform 2 (UniProt Q6N075)
inactive: [1] -0.025 | [2] -0.112 | [3] 0.108 | [4] 0.019 | [5] 0.079 | [6] 0.13 | [7] 0.049 | [8] -0.01 | [9] -0.073 | [10] 0.038 | [11] -0.06 | [12] 0.079 | [13] 0.051 | [14] 0.194 | [15] 0.12 | [16] -0.034 | [17] 0.051 | [18] 0.036 | [19] 0.113 | [20] 0.034
